Laboratory results: patent US5877009, “Isolated ApoA-I gene regulatory sequence elements” (Trustees of Boston University)

Chains of the proteins cited; added tags and fusions are not shown. Chains listed by the source or under a name are the forms on record and can include a tag or linker.
HNF-4 (Rattus norvegicus), one chain, as listed by the source: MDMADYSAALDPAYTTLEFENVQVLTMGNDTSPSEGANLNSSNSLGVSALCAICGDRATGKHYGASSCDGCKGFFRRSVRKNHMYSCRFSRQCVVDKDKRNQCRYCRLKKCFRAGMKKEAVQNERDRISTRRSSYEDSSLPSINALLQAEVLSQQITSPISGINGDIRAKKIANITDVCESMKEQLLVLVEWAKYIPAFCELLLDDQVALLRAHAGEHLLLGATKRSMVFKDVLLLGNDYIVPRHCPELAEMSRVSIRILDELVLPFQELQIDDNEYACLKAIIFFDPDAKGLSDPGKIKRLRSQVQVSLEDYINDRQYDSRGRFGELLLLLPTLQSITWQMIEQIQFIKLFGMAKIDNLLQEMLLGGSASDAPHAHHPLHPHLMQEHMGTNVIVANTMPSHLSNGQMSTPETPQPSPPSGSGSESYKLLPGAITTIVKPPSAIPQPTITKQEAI

How the values were obtained:
[1] = system: CIIIB1 (Rattus norvegicus); experiment: binding assay; details: affinity column ligand and photocross-linking; purified native protein; variant of CIIIB(WT) apoCIII -92 to -67
[2] = system: CIIIB2 (Rattus norvegicus); experiment: EMSA; details: protein in an extract
[3] = system: CIIIC1 (Rattus norvegicus); experiment: EMSA; details: protein in an extract
[4] = system: CIIIB1 (Rattus norvegicus); experiment: EMSA; details: purified native protein
[5] = system: AIIN3 (Rattus norvegicus); experiment: EMSA; details: methylation interference mapped G contacts; protein in an extract; protein details: liver nuclear extract, heat-labile
[6] = system: AIIAB1 (Rattus norvegicus); experiment: EMSA; details: protein in an extract
AID2 (Rattus norvegicus) = experiment: EMSA; details: fraction active in DNA binding; protein in an extract; protein details: liver, heparin-agarose and Mono Q fraction; label: 32P
[7] = system: AID1 (LF-A1) (Rattus norvegicus); experiment: EMSA; details: fraction active in DNA binding; purified native protein; protein details: liver, DNA affinity purified; label: 32P
EAR-3 (Homo sapiens) = target: T1, EAR-3 (Homo sapiens) (UniProt P10589); experiment: EMSA; details: complexes analysed by methylation interference; protein in a lysate after overexpression; protein details: COS-1, pMT2; label: 32P
T1 sequence (looked up, limits assumed): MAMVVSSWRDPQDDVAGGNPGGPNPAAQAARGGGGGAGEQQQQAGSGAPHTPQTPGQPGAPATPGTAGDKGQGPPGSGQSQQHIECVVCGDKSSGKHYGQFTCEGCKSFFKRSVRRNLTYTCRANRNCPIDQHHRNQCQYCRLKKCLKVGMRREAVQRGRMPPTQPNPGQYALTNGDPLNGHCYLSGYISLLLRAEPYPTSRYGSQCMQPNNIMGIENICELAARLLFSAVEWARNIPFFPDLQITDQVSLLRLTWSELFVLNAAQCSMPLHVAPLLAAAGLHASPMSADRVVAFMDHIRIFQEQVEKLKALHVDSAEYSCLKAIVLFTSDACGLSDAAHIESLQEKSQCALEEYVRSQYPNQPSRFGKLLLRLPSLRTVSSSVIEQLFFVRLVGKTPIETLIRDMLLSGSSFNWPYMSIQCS

EAR-2 (Homo sapiens) = target: T2, EAR-2 (Homo sapiens) (UniProt P10588); experiment: EMSA; details: complexes analysed by methylation interference; protein in a lysate after overexpression; protein details: COS-1, pMT2; label: 32P
T2 sequence (looked up, limits assumed): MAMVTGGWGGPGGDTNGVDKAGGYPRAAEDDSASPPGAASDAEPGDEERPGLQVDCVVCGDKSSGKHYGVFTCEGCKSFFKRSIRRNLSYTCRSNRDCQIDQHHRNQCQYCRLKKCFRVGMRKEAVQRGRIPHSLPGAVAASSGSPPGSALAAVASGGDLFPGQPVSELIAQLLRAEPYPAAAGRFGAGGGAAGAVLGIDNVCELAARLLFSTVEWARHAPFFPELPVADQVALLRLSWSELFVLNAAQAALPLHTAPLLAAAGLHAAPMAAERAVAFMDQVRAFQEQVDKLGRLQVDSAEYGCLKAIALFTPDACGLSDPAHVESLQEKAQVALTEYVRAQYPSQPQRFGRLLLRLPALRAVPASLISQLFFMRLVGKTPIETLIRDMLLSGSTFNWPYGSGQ

[8] = system: HNF-4 (Rattus norvegicus); experiment: EMSA; details: complexes analysed by methylation interference; protein in a lysate after overexpression; protein details: COS-1, pMT2; label: 32P
ARP-1 = target: T3, ARP-1 (UniProt P24468); experiment: EMSA; details: complexes analysed by methylation interference; protein in a lysate after overexpression; protein details: COS-1, pMT2; label: 32P
T3 sequence (looked up): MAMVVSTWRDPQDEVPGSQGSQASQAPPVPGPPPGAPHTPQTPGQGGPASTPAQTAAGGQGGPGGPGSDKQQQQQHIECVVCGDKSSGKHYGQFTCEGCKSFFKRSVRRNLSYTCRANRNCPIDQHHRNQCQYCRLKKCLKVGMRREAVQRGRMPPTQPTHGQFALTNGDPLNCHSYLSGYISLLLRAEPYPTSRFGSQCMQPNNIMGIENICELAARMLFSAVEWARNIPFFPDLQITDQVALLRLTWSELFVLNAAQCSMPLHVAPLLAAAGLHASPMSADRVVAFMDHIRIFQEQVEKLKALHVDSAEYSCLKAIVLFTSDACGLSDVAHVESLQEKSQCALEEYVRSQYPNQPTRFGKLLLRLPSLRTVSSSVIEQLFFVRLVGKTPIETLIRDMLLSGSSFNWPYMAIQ

GGTCAGCAGGTGACGACAGA (double strand) [CIIIBM5]
binding result [1]: binds | binding result ([2]; CITED Ogami et al. 1990, variant of CIIIB(WT) apoCIII -92 to -67, cited from earlier work): no binding

CTTCCTGTTGCATTCAAGTCCA (double strand) [apoA-II element D (-276 to -255)]
binding result [3]: binds

GCCCCTGCTGACTCAATATTGGCTAATCACT (double strand) [apoA-II element L (-803 to -773)]
binding result ([4]; methylation interference G -794 and -797): binds

GATATCTATTTAACTGATTTCACCC (double strand) [apoA-II element N (-903 to -879)]
binding result [5]: binds

TAAGGTGATCAAATGACC (double strand) [apoA-II element K (-760 to -743)]
binding result [6]: binds | binding result [4]: binds

CCCACTGAACCCTTGACCCCTGCC (double strand) [apoA-I element D (-215 to -191)]
binding result (AID2 (Rattus norvegicus)): binds | binding result [7]: binds

GGTCAGCAGGTGACCTTTGCCCAGCG (double strand) [CIIIB(WT) apoCIII -92 to -67]
binding result (EAR-3 (Homo sapiens)): binds | binding result ([2]; probe binds both CIIIB1 and CIIIB2, label: 32P): binds | binding result (EAR-2 (Homo sapiens)): binds | binding result [8]: binds | binding result (ARP-1): binds | binding result ([4]; purification followed with this probe, label: 32P): binds

For part of these data: At least one result comes from cells or an extract, where the contact may be indirect. For part of these data: Tags and fusion partners may be left off the protein sequences shown. For part of these data: The exact form of at least one protein or probe is not confirmed. For part of these data: No signal at the amounts used counts as a negative.
